This note sets out measurements from paper PMC12490859.

Chains of the proteins cited; added tags and fusions are not shown.
UniProt Q62420: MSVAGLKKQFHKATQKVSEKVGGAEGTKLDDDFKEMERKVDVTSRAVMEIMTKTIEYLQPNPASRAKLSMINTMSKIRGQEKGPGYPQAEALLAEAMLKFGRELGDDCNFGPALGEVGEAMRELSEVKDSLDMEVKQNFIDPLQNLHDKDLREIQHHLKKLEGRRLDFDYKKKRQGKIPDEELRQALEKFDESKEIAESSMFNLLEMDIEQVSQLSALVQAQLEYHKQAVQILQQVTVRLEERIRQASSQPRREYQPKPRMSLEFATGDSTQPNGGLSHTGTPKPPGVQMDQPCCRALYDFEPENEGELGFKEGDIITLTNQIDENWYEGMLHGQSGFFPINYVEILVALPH

For assay [1], the target named is T1, GABAAR α1 subunit (mouse (endogenous in mouse brain)), P62812.
T1 chain: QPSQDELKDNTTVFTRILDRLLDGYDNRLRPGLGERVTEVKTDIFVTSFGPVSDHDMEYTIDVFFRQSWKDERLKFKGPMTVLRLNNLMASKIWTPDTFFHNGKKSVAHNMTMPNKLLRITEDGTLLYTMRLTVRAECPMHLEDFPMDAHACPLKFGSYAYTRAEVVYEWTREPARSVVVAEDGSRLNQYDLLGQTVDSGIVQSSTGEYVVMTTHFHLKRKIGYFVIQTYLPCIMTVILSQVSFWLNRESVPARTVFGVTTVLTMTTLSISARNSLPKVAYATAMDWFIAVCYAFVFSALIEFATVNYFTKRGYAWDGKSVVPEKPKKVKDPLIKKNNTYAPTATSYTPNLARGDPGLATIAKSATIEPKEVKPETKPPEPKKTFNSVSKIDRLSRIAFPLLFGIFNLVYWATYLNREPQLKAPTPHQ
Put plainly: co-IP; immunoisolation from the membrane fraction (P100) of mouse hippocampi, buffer without detergent (Tris-HCl 20 mM, HEPES 10 mM, NaCl 150 mM, sucrose 250 mM, EDTA 0.5 mM), Dynabeads Protein A coupled with rabbit anti-EndoA1 or rabbit anti-GABAAR α1; immunoblotting; also from Sh3gl2+/+ and Sh3gl2-/- brains. To be noted: remark: other sources report otherwise. (In general: In western blotting, separated proteins are transferred to a membrane and probed.)

Assay [2] deals with endophilin A1 (mouse (endogenous in mouse brain)) (UniProt Q62420). Put plainly: co-IP; whole brain lysate of 8- to 10-week-old mice (1% NP-40, Tris-HCl 20 mM pH 7.4, NaCl 150 mM, EDTA 5 mM), anti-EndoA1 antibody or control IgG overnight at 4°C, Dynabeads Protein A; western blot.

Results are given in words; binding and its absence hold for the method and conditions named. Binding seen in cells or lysates may run through a third protein. Some binding calls cover weakened binding; strength is not graded here.

B1: gephyrin, Q8BUV3 1-769 (protein)
chain: MATEGMILTNHDHQIRVGVLTVSDSCFRNLAEDRSGINLKDLVQDPSLLGGTISAYKIVPDEIEEIKETLIDWCDEKELNLILTTGGTGFAPRDVTPEATKEVIEREAPGMALAMLMGSLNVTPLGMLSRPVCGIRGKTLIINLPGSKKGSQECFQFILPALPHAIDLLRDAIVKVKEVHDELEDLPSPPPPLSPPPTTSPHKQTEDKGVQCEEEEEEKKDSGVASTEDSSSSHITAAALAAKIPDSIISRGVQVLPRDTASLSTTPSESPRAQATSRLSTASCPTPKQIRRPDESKGVASRVGSLKARLPSCSSTYSVSEVQSRCSSKENILRASHSAVDITKVARRHRMSPFPLTSMDKAFITVLEMTPVLGTEIINYRDGMGRVLAQDVYAKDNLPPFPASVKDGYAVRAADGPGDRFIIGESQAGEQPTQTVMPGQVMRVTTGAPIPCGADAVVQVEDTELIRESDDGTEELEVRILVQARPGQDIRPIGHDIKRGECVLAKGTHMGPSEIGLLATVGVTEVEVNKFPVVAVMSTGNELLNPEDDLLPGKIRDSNRSTLLATIQEHGYPTINLGIVGDNPDDLLNALNEGISRADVIITSGGVSMGEKDYLKQVLDIDLHAQIHFGRVFMKPGLPTTFATLDIDGVRKIIFALPGNPVSAVVTCNLFVVPALRKMQGILDPRPTIIKARLSCDVKLDPRPEYHRCILTWHHQEPLPWAQSTGNQMSSRLMSMRSANGLLMLPPKTEQYVELHKGEVVDVMVIGRL
With B1, the binding entry in assay [1] is listed as “binds”.

B2: gephyrin (protein, UniProt Q8BUV3 1-769)
chain: B1 chain
On to B2, for which the binding entry in assay [2] is reported as “binds”.
